Our source for the binding values is paper PMC11971047.

Results are given in words; binding and its absence hold for the method and conditions named. Binding seen in cells or lysates may run through a third protein. A result given as binding can be weak or reduced; the word gives no strength. Where a sequence is shown, tags or fusion partners need not be part of it.

This test deals with human truncated adenylyl cyclase 3, FLAG-tagged (hAC3-AT-FLAG) (human). In words: co-IP; HEK293T cells transiently transfected with hAC3-HA and hAC3-AT-FLAG (or mCherry as control); lysis in 20 mM TRIS/HCl pH 8, 137 mM NaCl, 2 mM EDTA, 1% NP-40; anti-FLAG-M2 magnetic beads overnight at 4 °C; glycine pH 3.0 elution; western blot with HA antibody. (In general: A western blot detects proteins with antibodies after separation by electrophoresis.)

B1: human adenylyl cyclase 3, HA-tagged (hAC3-HA) (enzyme, UniProt O60266 1-1144)
chain: MPRNQGFSEPEYSAEYSAEYSVSLPSDPDRGVGRTHEISVRNSGSCLCLPRFMRLTFVPESLENLYQTYFKRQRHETLLVLVVFAALFDCYVVVMCAVVFSSDKLASLAVAGIGLVLDIILFVLCKKGLLPDRVTRRVLPYVLWLLITAQIFSYLGLNFARAHAASDTVGWQVFFVFSFFITLPLSLSPIVIISVVSCVVHTLVLGVTVAQQQQEELKGMQLLREILANVFLYLCAIAVGIMSYYMADRKHRKAFLEARQSLEVKMNLEEQSQQQENLMLSILPKHVADEMLKDMKKDESQKDQQQFNTMYMYRHENVSILFADIVGFTQLSSACSAQELVKLLNELFARFDKLAAKYHQLRIKILGDCYYCICGLPDYREDHAVCSILMGLAMVEAISYVREKTKTGVDMRVGVHTGTVLGGVLGQKRWQYDVWSTDVTVANKMEAGGIPGRVHISQSTMDCLKGEFDVEPGDGGSRCDYLEEKGIETYLIIASKPEVKKTATQNGLNGSALPNGAPASSKSSSPALIETKEPNGSAHSSGSTSEKPEEQDAQADNPSFPNPRRRLRLQDLADRVVDASEDEHELNQLLNEALLERESAQVVKKRNTFLLSMRFMDPEMETRYSVEKEKQSGAAFSCSCVVLLCTALVEILIDPWLMTNYVTFMVGEILLLILTICSLAAIFPRAFPKKLVAFSTWIDRTRWARNTWAMLAIFILVMANVVDMLSCLQYYTGPSNATAGMETEGSCLENPKYYNYVAVLSLIATIMLVQVSHMVKLTLMLLVAGAVATINLYAWRPVFDEYDHKRFREHDLPMVALEQMQGFNPGLNGTDRLPLVPSKYSMTVMVFLMMLSFYYFSRHVEKLARTLFLWKIEVHDQKERVYEMRRWNEALVTNMLPEHVARHFLGSKKRDEELYSQTYDEIGVMFASLPNFADFYTEESINNGGIECLRFLNEIISDFDSLLDNPKFRVITKIKTIGSTYMAASGVTPDVNTNGFASSNKEDKSERERWQHLADLADFALAMKDTLTNINNQSFNNFMLRIGMNKGGVLAGVIGARKPHYDIWGNTVNVASRMESTGVMGNIQVVEETQVILREYGFRFVRRGPIFVKGKGELLTFFLKGRDKLATFPNGPSVTLPHQVVDNS
Take B1: the binding result is listed as “binds”.
